Results on 40 targets are retold here after the supplement of paper PMC7666118.

Protein sequences, listed by entry. Tags and fused reporters are not part of them. Lines headed by an entry give the natural chain unless they say otherwise; changes in a name come on top.
UniProt P31946: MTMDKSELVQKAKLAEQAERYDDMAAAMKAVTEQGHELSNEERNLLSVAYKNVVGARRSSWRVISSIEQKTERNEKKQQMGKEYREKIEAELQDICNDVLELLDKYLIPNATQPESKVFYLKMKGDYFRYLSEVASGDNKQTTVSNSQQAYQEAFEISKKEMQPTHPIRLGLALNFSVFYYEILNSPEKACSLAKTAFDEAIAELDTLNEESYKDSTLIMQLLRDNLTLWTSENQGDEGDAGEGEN
UniProt Q9C0D3: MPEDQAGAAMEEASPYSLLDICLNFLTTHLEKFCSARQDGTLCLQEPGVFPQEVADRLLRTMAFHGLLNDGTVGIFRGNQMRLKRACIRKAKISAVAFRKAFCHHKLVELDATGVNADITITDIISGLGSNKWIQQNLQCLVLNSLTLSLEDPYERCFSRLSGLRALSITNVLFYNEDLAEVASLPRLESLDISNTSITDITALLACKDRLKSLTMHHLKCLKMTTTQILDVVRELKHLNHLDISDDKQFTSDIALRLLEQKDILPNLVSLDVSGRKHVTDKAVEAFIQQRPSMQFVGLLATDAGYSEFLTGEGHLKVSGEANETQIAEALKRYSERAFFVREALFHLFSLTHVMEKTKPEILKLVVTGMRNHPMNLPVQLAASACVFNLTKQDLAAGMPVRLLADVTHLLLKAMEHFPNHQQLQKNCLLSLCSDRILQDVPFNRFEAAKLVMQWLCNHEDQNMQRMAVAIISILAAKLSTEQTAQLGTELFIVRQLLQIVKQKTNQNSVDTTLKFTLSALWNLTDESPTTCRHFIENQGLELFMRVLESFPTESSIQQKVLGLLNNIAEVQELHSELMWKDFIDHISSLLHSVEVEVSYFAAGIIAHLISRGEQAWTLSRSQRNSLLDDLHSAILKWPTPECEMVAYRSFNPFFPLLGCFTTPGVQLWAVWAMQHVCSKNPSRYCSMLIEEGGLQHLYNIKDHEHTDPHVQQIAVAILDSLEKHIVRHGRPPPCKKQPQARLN
UniProt O95785: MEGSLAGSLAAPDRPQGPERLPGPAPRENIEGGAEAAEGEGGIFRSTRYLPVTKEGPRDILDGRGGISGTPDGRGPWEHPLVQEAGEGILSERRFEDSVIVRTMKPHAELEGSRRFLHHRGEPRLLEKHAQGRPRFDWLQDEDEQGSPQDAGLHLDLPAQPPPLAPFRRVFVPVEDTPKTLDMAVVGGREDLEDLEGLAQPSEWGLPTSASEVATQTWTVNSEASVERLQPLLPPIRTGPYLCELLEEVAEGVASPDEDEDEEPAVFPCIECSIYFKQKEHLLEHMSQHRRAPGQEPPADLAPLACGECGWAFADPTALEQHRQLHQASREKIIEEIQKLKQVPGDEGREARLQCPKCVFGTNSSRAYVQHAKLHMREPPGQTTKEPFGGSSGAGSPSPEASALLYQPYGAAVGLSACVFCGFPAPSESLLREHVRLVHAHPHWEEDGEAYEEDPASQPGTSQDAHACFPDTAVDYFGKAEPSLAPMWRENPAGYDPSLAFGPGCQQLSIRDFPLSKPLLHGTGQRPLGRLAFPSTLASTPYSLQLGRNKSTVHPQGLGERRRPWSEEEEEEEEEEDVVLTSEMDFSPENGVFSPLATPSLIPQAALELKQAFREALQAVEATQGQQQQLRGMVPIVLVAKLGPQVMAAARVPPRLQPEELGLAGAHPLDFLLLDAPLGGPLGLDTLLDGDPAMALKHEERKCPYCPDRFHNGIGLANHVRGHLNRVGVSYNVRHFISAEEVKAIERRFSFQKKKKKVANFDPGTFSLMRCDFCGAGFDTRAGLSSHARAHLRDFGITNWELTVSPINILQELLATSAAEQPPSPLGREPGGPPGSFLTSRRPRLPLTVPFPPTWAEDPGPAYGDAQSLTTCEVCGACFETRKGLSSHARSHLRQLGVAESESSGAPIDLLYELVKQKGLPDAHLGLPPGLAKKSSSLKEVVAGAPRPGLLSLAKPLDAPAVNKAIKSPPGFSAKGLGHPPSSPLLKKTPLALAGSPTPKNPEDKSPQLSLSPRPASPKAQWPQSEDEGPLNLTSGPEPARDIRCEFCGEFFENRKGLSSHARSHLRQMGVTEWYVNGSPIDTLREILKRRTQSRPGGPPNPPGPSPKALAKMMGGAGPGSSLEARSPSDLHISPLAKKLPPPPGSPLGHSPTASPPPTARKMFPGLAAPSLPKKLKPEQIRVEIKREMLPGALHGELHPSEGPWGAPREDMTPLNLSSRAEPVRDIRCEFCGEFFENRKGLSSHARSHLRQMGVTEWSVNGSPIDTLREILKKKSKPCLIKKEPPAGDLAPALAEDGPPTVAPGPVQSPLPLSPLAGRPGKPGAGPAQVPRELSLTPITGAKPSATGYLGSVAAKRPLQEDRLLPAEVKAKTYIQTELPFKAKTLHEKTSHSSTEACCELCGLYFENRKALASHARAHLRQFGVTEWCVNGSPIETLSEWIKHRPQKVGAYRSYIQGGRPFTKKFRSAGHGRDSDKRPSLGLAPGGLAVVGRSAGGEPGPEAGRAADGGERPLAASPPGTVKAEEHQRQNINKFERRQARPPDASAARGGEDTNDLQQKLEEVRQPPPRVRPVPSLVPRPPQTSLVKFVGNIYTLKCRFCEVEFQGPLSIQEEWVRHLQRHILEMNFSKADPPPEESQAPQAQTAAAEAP
UniProt O75152: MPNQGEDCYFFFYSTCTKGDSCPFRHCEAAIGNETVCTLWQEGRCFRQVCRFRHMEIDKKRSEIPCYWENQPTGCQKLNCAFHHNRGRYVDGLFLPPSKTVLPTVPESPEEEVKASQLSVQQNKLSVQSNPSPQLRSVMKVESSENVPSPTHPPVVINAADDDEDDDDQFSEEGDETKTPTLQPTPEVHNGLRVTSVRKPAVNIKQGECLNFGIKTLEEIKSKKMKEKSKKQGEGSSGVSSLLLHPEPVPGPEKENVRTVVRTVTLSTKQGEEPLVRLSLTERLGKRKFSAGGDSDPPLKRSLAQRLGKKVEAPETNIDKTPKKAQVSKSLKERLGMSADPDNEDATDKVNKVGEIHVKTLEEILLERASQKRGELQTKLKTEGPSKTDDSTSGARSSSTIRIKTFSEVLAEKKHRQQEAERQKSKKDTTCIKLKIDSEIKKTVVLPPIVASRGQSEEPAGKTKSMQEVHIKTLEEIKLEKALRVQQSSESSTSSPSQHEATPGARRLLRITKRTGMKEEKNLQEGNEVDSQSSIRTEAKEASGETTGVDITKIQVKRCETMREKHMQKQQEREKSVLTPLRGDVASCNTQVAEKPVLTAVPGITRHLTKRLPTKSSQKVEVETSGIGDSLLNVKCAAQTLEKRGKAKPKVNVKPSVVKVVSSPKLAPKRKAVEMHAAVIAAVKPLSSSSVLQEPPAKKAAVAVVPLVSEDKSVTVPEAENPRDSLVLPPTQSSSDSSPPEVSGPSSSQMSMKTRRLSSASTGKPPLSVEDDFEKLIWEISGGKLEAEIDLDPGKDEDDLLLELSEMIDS
UniProt Q15061: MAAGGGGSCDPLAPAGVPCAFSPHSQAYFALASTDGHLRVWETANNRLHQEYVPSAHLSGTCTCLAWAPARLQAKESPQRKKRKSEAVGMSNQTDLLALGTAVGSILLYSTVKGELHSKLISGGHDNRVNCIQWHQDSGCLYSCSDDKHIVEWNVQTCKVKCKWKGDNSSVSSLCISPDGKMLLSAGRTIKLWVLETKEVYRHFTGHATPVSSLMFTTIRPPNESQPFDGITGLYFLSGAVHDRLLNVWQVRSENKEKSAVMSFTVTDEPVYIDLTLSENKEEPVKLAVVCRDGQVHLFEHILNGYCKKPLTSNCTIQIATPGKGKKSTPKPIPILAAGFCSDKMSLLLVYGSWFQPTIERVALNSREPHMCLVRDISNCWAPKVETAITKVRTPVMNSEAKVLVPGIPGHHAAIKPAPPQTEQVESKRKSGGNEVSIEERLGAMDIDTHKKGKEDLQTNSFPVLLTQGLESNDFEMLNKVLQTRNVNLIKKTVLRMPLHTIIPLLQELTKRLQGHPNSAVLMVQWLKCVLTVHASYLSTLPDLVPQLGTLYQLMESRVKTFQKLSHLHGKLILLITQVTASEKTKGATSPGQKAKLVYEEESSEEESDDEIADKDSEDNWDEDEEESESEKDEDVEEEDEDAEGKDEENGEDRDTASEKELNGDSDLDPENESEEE
UniProt Q9H5H4: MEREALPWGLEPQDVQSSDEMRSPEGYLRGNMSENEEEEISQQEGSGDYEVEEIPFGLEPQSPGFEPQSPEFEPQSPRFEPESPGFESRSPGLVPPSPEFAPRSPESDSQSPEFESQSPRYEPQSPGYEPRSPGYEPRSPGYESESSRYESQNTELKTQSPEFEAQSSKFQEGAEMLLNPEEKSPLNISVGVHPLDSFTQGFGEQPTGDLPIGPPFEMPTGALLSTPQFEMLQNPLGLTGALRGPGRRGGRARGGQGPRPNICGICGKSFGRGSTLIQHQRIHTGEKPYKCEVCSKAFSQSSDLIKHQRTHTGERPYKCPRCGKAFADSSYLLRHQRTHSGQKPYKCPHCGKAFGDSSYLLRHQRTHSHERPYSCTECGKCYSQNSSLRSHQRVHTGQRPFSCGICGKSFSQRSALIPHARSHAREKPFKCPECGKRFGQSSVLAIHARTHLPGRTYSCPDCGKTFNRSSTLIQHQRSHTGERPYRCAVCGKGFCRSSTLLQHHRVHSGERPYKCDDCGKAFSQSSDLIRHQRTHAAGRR
UniProt Q19AV6: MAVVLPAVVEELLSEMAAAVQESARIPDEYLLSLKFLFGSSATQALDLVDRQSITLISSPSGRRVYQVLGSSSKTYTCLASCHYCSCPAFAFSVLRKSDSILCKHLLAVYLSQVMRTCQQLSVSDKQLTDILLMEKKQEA
UniProt P62699: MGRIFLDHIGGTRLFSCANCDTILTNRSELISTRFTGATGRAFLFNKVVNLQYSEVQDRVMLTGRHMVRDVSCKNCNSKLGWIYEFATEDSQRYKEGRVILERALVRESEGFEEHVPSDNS
UniProt Q96S55: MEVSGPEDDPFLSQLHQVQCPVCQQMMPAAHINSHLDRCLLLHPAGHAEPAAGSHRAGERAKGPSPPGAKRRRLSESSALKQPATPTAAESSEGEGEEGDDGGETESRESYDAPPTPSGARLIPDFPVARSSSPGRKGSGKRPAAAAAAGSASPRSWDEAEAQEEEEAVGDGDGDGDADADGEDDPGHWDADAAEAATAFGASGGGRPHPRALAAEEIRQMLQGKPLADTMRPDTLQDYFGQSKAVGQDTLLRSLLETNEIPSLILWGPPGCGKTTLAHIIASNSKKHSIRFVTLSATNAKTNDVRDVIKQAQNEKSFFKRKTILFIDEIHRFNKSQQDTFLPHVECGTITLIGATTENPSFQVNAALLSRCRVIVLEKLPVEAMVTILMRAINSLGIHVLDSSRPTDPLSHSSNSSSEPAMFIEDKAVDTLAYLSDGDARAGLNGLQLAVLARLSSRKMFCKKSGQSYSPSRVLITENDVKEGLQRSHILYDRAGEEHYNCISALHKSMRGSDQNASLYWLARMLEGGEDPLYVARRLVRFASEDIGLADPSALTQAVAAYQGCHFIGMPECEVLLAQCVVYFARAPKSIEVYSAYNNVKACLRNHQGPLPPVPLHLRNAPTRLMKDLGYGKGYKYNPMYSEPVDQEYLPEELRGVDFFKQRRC
UniProt O43298: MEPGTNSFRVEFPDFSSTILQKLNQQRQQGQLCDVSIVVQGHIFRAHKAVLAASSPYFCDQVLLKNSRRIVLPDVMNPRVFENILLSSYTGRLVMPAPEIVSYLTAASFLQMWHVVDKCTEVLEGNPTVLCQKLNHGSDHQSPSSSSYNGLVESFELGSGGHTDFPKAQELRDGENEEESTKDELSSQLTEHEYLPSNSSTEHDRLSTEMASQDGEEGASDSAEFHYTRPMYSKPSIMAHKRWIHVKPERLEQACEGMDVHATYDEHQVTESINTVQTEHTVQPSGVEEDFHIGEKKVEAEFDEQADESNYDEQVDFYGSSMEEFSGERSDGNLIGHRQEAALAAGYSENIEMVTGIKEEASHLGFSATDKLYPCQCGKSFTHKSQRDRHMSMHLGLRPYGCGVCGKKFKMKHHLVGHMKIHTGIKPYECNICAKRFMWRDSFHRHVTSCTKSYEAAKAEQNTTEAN
UniProt Q9H1Z4: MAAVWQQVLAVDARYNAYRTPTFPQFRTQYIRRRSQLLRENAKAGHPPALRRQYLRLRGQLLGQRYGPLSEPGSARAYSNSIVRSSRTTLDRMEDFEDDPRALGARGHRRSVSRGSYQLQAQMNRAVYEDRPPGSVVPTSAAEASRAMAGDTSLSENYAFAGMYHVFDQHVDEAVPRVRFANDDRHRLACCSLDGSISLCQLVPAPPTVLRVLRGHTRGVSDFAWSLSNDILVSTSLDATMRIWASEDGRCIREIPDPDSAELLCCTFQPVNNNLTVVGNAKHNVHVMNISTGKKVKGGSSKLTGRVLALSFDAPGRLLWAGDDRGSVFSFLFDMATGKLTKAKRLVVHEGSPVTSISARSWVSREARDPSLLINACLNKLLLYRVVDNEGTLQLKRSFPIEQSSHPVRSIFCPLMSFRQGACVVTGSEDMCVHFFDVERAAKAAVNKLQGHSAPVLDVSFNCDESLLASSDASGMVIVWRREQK

This is one part of the list.

Compound in this test: COc1ccc(Cn2ccc3cc(C)c(C(=O)NO)cc32)cc1
Description: dose-dependent thermal stabilisation call (2D-TPP, DLPTP, 10% FDR) (binary (1 = stabilised)); higher = stabilised by the compound. The conditions noted are these: system: HL-60 intact cells; concentration range 0.04-10 µM. The procedure: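 2D thermal proteome profiling in intact HL-60 cells treated with BRD-3811 (0, 0.04, 0.29, 2, 10 uM) for 90 min at 37 C, then heated 3 min at one of 12 temperatures (42-63.9 C). Soluble protein was quantified by TMT10 MS. The value is the DLPTP call of the paper: dose-dependent thermal stabilisation over all temperatures at 10% FDR (F-test of a dose-response against a flat model); one experiment, one call per tested protein.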
On to ZADH2 (UniProt Q8N4Q0), for which the “dose-dependent thermal stabilisation call” value is inactive: 0.
Consider WDR40A (UniProt Q5T6F0), for which the “dose-dependent thermal stabilisation call” value was inactive: 0.
Regarding WDTC1 (UniProt Q8N5D0), the “dose-dependent thermal stabilisation call” value was inactive: 0.
ZNF24 (UniProt P17028): the “dose-dependent thermal stabilisation call” value is inactive: 0.
As for ZNF414 (UniProt Q96IQ9), the “dose-dependent thermal stabilisation call” value is inactive: 0.
For the target ZFAND2B (UniProt Q8WV99), the “dose-dependent thermal stabilisation call” value is inactive: 0.
Then ZNHIT6 (UniProt Q9NWK9), with inactive: 0; and WDR46 (UniProt O15213), with inactive: 0; and WHSC2 (UniProt Q9H3P2), with inactive: 0.
For ZNF828 (UniProt Q96JM3), the “dose-dependent thermal stabilisation call” value was inactive: 0.
Take WDR59 (UniProt Q6PJI9): the “dose-dependent thermal stabilisation call” value is inactive: 0.
As to ZNFX1 (UniProt Q9P2E3), the “dose-dependent thermal stabilisation call” value was inactive: 0.
Then ZBTB7B (UniProt O15156), with inactive: 0; and WDR41 (UniProt Q9HAD4), with inactive: 0.
As to WDR20 (UniProt Q8TBZ3), the “dose-dependent thermal stabilisation call” value is inactive: 0.
On to ZNF574 (UniProt Q6ZN55), for which the “dose-dependent thermal stabilisation call” value was inactive: 0.
To YWHAB (UniProt P31946) belongs inactive: 0.
As to WWC2 (UniProt Q6AWC2), the “dose-dependent thermal stabilisation call” value is inactive: 0.
In the case of YIPF6 (UniProt Q96EC8), the “dose-dependent thermal stabilisation call” value is inactive: 0.
For YES1 (UniProt P07947), the “dose-dependent thermal stabilisation call” value is inactive: 0.
For the target ZYG11B (UniProt Q9C0D3), the “dose-dependent thermal stabilisation call” value was inactive: 0.
With WIZ (UniProt O95785), the “dose-dependent thermal stabilisation call” value is inactive: 0.
For the target XPNPEP1 (UniProt Q9NQW7), the “dose-dependent thermal stabilisation call” value is inactive: 0.
As for YARS (UniProt P54577), the “dose-dependent thermal stabilisation call” value was inactive: 0.
Turning to ZNF598 (UniProt Q86UK7), the “dose-dependent thermal stabilisation call” value was inactive: 0.
Turning to WDR26 (UniProt Q9H7D7), the “dose-dependent thermal stabilisation call” value was inactive: 0.
For the target WIBG (UniProt Q9BRP8), the “dose-dependent thermal stabilisation call” value is inactive: 0.
Regarding ZC3H11A (UniProt O75152), the “dose-dependent thermal stabilisation call” value is inactive: 0.
Turning to WDR43 (UniProt Q15061), the “dose-dependent thermal stabilisation call” value was inactive: 0.
Take ZNF629 (UniProt Q9UEG4): the “dose-dependent thermal stabilisation call” value was inactive: 0.
ZZEF1 (UniProt O43149): the “dose-dependent thermal stabilisation call” value is inactive: 0.
On to ZNF48 (UniProt Q96MX3), for which the “dose-dependent thermal stabilisation call” value was inactive: 0.
In the case of ZNF768 (UniProt Q9H5H4), the “dose-dependent thermal stabilisation call” value was inactive: 0.
With WIPF1 (UniProt O43516), the “dose-dependent thermal stabilisation call” value was inactive: 0.
To ZSWIM7 (UniProt Q19AV6) belongs inactive: 0.
YPEL5 (UniProt P62699): the “dose-dependent thermal stabilisation call” value was inactive: 0.
As to WRNIP1 (UniProt Q96S55), the “dose-dependent thermal stabilisation call” value is inactive: 0.
To ZBTB43 (UniProt O43298) belongs inactive: 0.
To WDR13 (UniProt Q9H1Z4) belongs inactive: 0; to XYLB (UniProt O75191), inactive: 0.
